Results are given in words; binding and its absence hold for the method and conditions named. In cells and extracts the contact can be indirect. Some binding calls cover weakened binding; strength is not graded here. For some assays here: Sequences can lack the tags named with a protein.
T1: GST-SET7/9 (human) (UniProt Q8WTS6)
T1 sequence (looked up): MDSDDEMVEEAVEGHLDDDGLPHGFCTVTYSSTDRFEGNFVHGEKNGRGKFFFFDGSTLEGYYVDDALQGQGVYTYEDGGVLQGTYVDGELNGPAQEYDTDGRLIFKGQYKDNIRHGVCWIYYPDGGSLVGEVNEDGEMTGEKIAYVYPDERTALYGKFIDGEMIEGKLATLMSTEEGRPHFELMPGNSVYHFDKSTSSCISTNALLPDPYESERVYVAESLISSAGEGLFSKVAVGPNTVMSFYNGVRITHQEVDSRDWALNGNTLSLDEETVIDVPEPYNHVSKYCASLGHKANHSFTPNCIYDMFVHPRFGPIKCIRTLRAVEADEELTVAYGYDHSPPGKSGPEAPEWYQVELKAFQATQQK

T2: over-expressed LIN28A (HEK293T cells) (UniProt Q9H9Z2)
T2 sequence (looked up): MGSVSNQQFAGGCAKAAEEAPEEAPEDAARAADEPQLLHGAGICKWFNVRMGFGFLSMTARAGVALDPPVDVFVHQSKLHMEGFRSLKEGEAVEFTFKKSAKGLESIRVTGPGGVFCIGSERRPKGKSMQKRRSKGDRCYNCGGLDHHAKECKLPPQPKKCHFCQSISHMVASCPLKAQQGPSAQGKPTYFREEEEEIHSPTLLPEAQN

T3: endogenous LIN28A (human) (UniProt Q9H9Z2)
T3 sequence (looked up): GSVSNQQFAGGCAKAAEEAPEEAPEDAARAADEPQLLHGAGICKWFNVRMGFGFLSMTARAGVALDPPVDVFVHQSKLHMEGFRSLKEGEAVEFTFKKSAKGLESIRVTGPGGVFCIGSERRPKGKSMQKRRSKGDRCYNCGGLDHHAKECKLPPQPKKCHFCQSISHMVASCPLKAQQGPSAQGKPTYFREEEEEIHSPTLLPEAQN


Experiments:
[1] = biological target: T1, GST-SET7/9 (human); assay: in vitro GST pull-down, immunoblot
[2] = biological target: T2, over-expressed LIN28A (HEK293T cells); assay: co-immunoprecipitation of over-expressed LIN28A from HEK293T lysates, immunoblot; reverse immunoprecipitation of SET7/9 gave the same result
[3] = biological target: T3, endogenous LIN28A (human); assay: co-immunoprecipitation of endogenous LIN28A from H9 and NCCIT lysates, immunoblot; reverse immunoprecipitation of SET7/9 gave the same result

| Binder | binding [1] | binding [2] | binding [3] |
| --- | --- | --- | --- |
| 6×HIS-LIN28A-K135R (protein, human, UniProt Q9H9Z2 1-209, looked up, not shown: small tags and cut ends) MGSVSNQQFAGGCAKAAEEAPEEAPEDAARAADEPQLLHGAGICKWFNVRMGFGFLSMTARAGVALDPPVDVFVHQSKLHMEGFRSLKEGEAVEFTFKKSAKGLESIRVTGPGGVFCIGSERRPKGKSMQKRRSRGDRCYNCGGLDHHAKECKLPPQPKKCHFCQSISHMVASCPLKAQQGPSAQGKPTYFREEEEEIHSPTLLPEAQN | binds | – | – |
| 6×HIS-labeled human LIN28A (full-length) (protein, UniProt Q9H9Z2 1-209, looked up, not shown: small tags and cut ends) MGSVSNQQFAGGCAKAAEEAPEEAPEDAARAADEPQLLHGAGICKWFNVRMGFGFLSMTARAGVALDPPVDVFVHQSKLHMEGFRSLKEGEAVEFTFKKSAKGLESIRVTGPGGVFCIGSERRPKGKSMQKRRSKGDRCYNCGGLDHHAKECKLPPQPKKCHFCQSISHMVASCPLKAQQGPSAQGKPTYFREEEEEIHSPTLLPEAQN | binds | – | – |

Next, values leading:

| binding [1] | binding [2] | binding [3] | Binder |
| --- | --- | --- | --- |
| – | binds | binds | SET7/9 (in cell lysates) (enzyme, human, UniProt Q8WTS6 1-366, looked up) MDSDDEMVEEAVEGHLDDDGLPHGFCTVTYSSTDRFEGNFVHGEKNGRGKFFFFDGSTLEGYYVDDALQGQGVYTYEDGGVLQGTYVDGELNGPAQEYDTDGRLIFKGQYKDNIRHGVCWIYYPDGGSLVGEVNEDGEMTGEKIAYVYPDERTALYGKFIDGEMIEGKLATLMSTEEGRPHFELMPGNSVYHFDKSTSSCISTNALLPDPYESERVYVAESLISSAGEGLFSKVAVGPNTVMSFYNGVRITHQEVDSRDWALNGNTLSLDEETVIDVPEPYNHVSKYCASLGHKANHSFTPNCIYDMFVHPRFGPIKCIRTLRAVEADEELTVAYGYDHSPPGKSGPEAPEWYQVELKAFQATQQK |
| binds | – | – | LIN28A (125-209) (protein, human, UniProt Q9H9Z2 125-209, looked up, not shown: large carriers) KGKSMQKRRSKGDRCYNCGGLDHHAKECKLPPQPKKCHFCQSISHMVASCPLKAQQGPSAQGKPTYFREEEEEIHSPTLLPEAQN |

— patent US20160053258A1
